{"source": "patent US9057727B2", "about": "“Screening methods using G-protein coupled receptors and related compositions” (The General Hospital Corporation, priority 2007, dated 2015)", "tested_on": "MC3T3-E1 cells", "assay": "cAMP in MC3T3-E1 cells, dose-response", "type": "cell-based", "conditions": "Table 3", "protocol": "In the 1-30 scaffold, Gly, Ser, Leu, Asn, Gln, Trp, Glu, and Lys were substituted at position 29; Gly, Ser, Leu, Asn, Asp, Trp, and Lys were substituted at position 30; and Ser, Leu, Asn, Val, Trp, Glu, and Lys were substituted at position 31. […] These peptides were tested for cAMP activity in MC3T3-E1 cells.", "note": "Part of at least one peptide drawing is inferred or uncertain, most often the ends. Peptide text beside a SMILES is read from it."}
{"smiles": "CC[C@H](C)[C@H](NC(=O)[C@H](CCC(=O)O)NC(=O)[C@H](C)NC(=O)[C@@H](NC(=O)[C@H](CCCCN)NC(=O)[C@H](Cc1c[nH]cn1)NC(=O)[C@H](Cc1c[nH]cn1)NC(=O)[C@H](CC(C)C)NC(=O)[C@H](Cc1ccccc1)NC(=O)[C@H](C)NC(=O)[C@H](CCCNC(=N)N)NC(=O)[C@H](CCCNC(=N)N)NC(=O)[C@H](CCCNC(=N)N)NC(=O)[C@H](CCC(=O)O)NC(=O)[C@H](CC(=O)O)NC(=O)[C@H](CCC(N)=O)NC(=O)[C@@H](NC(=O)[C@H](CO)NC(=O)[C@H](CCCCN)NC(=O)CNC(=O)[C@H](CCCCN)NC(=O)[C@H](CC(=O)O)NC(=O)[C@H](Cc1c[nH]cn1)NC(=O)[C@H](CC(C)C)NC(=O)[C@H](CC(C)C)NC(=O)[C@H](CCC(N)=O)NC(=O)[C@H](Cc1c[nH]cn1)NC(=O)[C@H](CCC(=O)O)NC(=O)[C@H](CO)NC(=O)[C@@H](NC(=O)[C@H](C)N)C(C)C)[C@@H](C)CC)[C@@H](C)CC)C(N)=O", "note": "[E18, A22, K27-PTHrP(1-31)NH, E18,A22,K27-PTHrP(1-31)] (H-AVSEHQLLHDKGKSIQDERRRAFLHHKIAEI-NH2; N-terminus assumed)", "values": [{"measurement": "EC50", "value": 0.06, "unit": "nM"}]}
